PubChem BioAssay AID1259308 | NCATS, 2017

- Aim: 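Genes whose loss raises luciferase production in HEK293 cells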 (primary screen)
- Cell system: human HEK293 embryonic kidney cells stably expressing firefly luciferase (HEK-CMV-Luc2-Hygro)
- Reagents: single siRNA against human genes, 0.8 pmol siRNA per well
- Time to read-out: 72 h
- Read-out: 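Reporter luminescence and viable-cell signal on separate replicate plates, given as percent of non-targeting control and median/MAD z-scores, plus per-cell luciferase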
- Reading the numbers: total luciferase, z-score and total luciferase, % of control: higher = more reporter protein produced; luciferase per cell, z-score: higher = more reporter output per viable cell; viable cells, % of control: higher = more viable cells
- Hit rule: 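Active when the median/MAD z-score for overall luciferase is greater than 3; a gene was taken forward for validation with new siRNAs if at least two of its three siRNAs passed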
- Calls: active = raised luciferase; inactive = no rise
Shown is an unselected part of about 59,000 reagents tested. About 1,510 of all reagents (2.6%) were called active. 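Calls use total luciferase alone and ignore viability, so some active siRNAs may act by altering cell number.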 The numbers tell different reagents against one gene apart.

| total luciferase, z-score | total luciferase, % of control | luciferase per cell, z-score | viable cells, % of control | outcome | gene | reagent no. |
| --- | --- | --- | --- | --- | --- | --- |
| 1.11 | 104 | 1.22 | 84.3 | inactive | PTCD3 | 1 |
| 1.88 | 119 | 1.6 | 87.5 | inactive | PTCD3 | 2 |
| -0.182 | 78.3 | 0.146 | 84.2 | inactive | PTCD3 | 3 |
| 0.0199 | 82.3 | 0.649 | 77.5 | inactive | NSMCE4A | 1 |
| 0.863 | 99.1 | 1.07 | 83.5 | inactive | NSMCE4A | 2 |
| -0.344 | 75.1 | 0.623 | 71.2 | inactive | NSMCE4A | 3 |
| -0.371 | 74.5 | -0.176 | 87.2 | inactive | LDLRAD4 | 1 |
| 0.176 | 85.4 | 0.706 | 79.2 | inactive | LDLRAD4 | 2 |
| 4.01 | 162 | 2.59 | 91.4 | active | LDLRAD4 | 3 |
| -1.43 | 53.4 | -1.33 | 84.7 | inactive | NIFK | 1 |
| -1.98 | 42.5 | -1.83 | 76.9 | inactive | NIFK | 2 |
| -1.05 | 61 | 1.24 | 49.2 | inactive | NIFK | 3 |
| 0.42 | 90.2 | 0.215 | 95.3 | inactive | MPP1 | 1 |
| 0.568 | 93.2 | 0.825 | 83.8 | inactive | MPP1 | 2 |
| -0.2 | 77.9 | -0.287 | 93.9 | inactive | MPP1 | 3 |
| 3.61 | 154 | 2.44 | 90.3 | active | GPR150 | 1 |
| -0.0894 | 80.1 | -0.298 | 96.8 | inactive | GPR150 | 2 |
| -1.04 | 61.2 | -0.163 | 71.4 | inactive | GPR150 | 3 |
| -0.455 | 72.8 | -0.469 | 92.1 | inactive | TMEM255B | 1 |
| 0.463 | 91.1 | 0.879 | 80.8 | inactive | TMEM255B | 2 |
| -0.27 | 76.5 | -0.949 | 110 | inactive | TMEM255B | 3 |
| -0.546 | 71 | -0.37 | 87.5 | inactive | SPRING1 | 1 |
| -0.0581 | 80.7 | -0.491 | 103 | inactive | SPRING1 | 2 |
| 1.69 | 115 | 1.87 | 78.9 | inactive | SPRING1 | 3 |
| -0.395 | 74 | -0.601 | 96.9 | inactive | STAT1 | 1 |
| 0.0202 | 82.3 | -0.629 | 109 | inactive | STAT1 | 2 |
| 0.158 | 85 | -0.532 | 109 | inactive | STAT1 | 3 |
| -1.55 | 51.1 | -0.536 | 65.8 | inactive | LCN15 | 1 |
| 0.242 | 86.7 | -0.282 | 104 | inactive | LCN15 | 2 |
| -0.436 | 73.2 | -0.752 | 99.7 | inactive | LCN15 | 3 |
| -0.172 | 78.5 | -0.618 | 103 | inactive | KRTAP4-1 | 1 |
| 0.509 | 92 | 0.893 | 81.3 | inactive | KRTAP4-1 | 2 |
| -0.388 | 74.2 | 0.0909 | 80.9 | inactive | KRTAP4-1 | 3 |
| -0.0811 | 80.3 | -0.434 | 101 | inactive | CCDC140 | 1 |
| 1.78 | 117 | 1.54 | 87.4 | inactive | CCDC140 | 2 |
| -0.14 | 79.1 | -0.606 | 104 | inactive | CCDC140 | 3 |
| 2.33 | 128 | 2.21 | 80.2 | inactive | H2BC9 | 1 |
| -0.746 | 67 | -0.139 | 77.7 | inactive | H2BC9 | 2 |
| -0.688 | 68.2 | -0.665 | 90.8 | inactive | H2BC9 | 3 |
| 1.46 | 111 | 2.14 | 70.5 | inactive | RAI2 | 1 |
| 0.544 | 92.7 | 0.277 | 96.3 | inactive | RAI2 | 2 |
| -0.265 | 76.6 | 0.346 | 78.2 | inactive | RAI2 | 3 |
| -1.46 | 52.8 | -0.557 | 68.3 | inactive | MUC16 | 1 |
| 2.6 | 134 | 3.02 | 67.5 | inactive | MUC16 | 2 |
| -1.3 | 55.9 | -1.31 | 88.2 | inactive | MUC16 | 3 |
| 0.0124 | 82.1 | -0.0723 | 93.5 | inactive | MINDY1 | 1 |
| 3.51 | 152 | 2.12 | 97.1 | active | MINDY1 | 2 |
| 0.358 | 89 | 0.0508 | 98.1 | inactive | MINDY1 | 3 |
| -1.14 | 59.2 | -0.22 | 70.1 | inactive | CLPTM1 | 1 |
| 0.412 | 90.1 | -0.0468 | 102 | inactive | CLPTM1 | 2 |
| 0.907 | 99.9 | 0.724 | 92.3 | inactive | CLPTM1 | 3 |
| 0.792 | 97.6 | 0.121 | 106 | inactive | CUL5 | 1 |
| 0.555 | 92.9 | 1.28 | 74.1 | inactive | CUL5 | 2 |
| -0.111 | 79.7 | -0.419 | 99.4 | inactive | CUL5 | 3 |
| -1.6 | 50.1 | -1.52 | 83.6 | inactive | RNGTT | 1 |
| -1.34 | 55.1 | -1.62 | 94.4 | inactive | RNGTT | 2 |
| -0.127 | 79.4 | -0.487 | 101 | inactive | RNGTT | 3 |
